Measured values from patent EP4663202A1 (Innovent Biologics (Suzhou) Co., Ltd., dated 2025).
These are yes or no findings as the source states them, for the method shown. Some results given as binding are weak or reduced against the parent protein; the word gives no strength.

Biological target: T1, human VEGFC (human, UniProt P49767 103-227, limits assumed)
T1 sequence (looked up): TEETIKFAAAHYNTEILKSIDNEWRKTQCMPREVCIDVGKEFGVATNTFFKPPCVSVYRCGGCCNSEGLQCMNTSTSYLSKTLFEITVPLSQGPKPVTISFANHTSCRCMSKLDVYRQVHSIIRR
Test: blocking ELISA, VEGFC-biotin on streptavidin plate, VEGFR3-Fc 0.2 ug/mL

binding: binds
B1: anti-VEGFC antibody am63G12.1-5G8-18B9 (VHH)
VHH: EVQLVESGGGLVQPGGSLRLSCAASGSSFSPYAMGWYRQAPGKQRELVSATSSGGFTLYADSVKGRFTISRDNSKNTVYLQMNSLRAEDTAVYYCYTYYREYDPEMYWGQGTQVTVSS
notes: also called anti-VEGFC humanized VHH antibody
